In patent US20140121213A1, “VOLTAGE-GATED SODIUM CHANNEL BLOCKERS” (priority 2011, published 2014):
Counter-ions that a name gives are not always drawn. Some of these results come from one statement about several compounds together. For at least one compound, name, drawing or mass did not settle the structure.

By UniProt entry, the sequences of proteins in these tests, tags left out.
UniProt Q9NY46, whole entry: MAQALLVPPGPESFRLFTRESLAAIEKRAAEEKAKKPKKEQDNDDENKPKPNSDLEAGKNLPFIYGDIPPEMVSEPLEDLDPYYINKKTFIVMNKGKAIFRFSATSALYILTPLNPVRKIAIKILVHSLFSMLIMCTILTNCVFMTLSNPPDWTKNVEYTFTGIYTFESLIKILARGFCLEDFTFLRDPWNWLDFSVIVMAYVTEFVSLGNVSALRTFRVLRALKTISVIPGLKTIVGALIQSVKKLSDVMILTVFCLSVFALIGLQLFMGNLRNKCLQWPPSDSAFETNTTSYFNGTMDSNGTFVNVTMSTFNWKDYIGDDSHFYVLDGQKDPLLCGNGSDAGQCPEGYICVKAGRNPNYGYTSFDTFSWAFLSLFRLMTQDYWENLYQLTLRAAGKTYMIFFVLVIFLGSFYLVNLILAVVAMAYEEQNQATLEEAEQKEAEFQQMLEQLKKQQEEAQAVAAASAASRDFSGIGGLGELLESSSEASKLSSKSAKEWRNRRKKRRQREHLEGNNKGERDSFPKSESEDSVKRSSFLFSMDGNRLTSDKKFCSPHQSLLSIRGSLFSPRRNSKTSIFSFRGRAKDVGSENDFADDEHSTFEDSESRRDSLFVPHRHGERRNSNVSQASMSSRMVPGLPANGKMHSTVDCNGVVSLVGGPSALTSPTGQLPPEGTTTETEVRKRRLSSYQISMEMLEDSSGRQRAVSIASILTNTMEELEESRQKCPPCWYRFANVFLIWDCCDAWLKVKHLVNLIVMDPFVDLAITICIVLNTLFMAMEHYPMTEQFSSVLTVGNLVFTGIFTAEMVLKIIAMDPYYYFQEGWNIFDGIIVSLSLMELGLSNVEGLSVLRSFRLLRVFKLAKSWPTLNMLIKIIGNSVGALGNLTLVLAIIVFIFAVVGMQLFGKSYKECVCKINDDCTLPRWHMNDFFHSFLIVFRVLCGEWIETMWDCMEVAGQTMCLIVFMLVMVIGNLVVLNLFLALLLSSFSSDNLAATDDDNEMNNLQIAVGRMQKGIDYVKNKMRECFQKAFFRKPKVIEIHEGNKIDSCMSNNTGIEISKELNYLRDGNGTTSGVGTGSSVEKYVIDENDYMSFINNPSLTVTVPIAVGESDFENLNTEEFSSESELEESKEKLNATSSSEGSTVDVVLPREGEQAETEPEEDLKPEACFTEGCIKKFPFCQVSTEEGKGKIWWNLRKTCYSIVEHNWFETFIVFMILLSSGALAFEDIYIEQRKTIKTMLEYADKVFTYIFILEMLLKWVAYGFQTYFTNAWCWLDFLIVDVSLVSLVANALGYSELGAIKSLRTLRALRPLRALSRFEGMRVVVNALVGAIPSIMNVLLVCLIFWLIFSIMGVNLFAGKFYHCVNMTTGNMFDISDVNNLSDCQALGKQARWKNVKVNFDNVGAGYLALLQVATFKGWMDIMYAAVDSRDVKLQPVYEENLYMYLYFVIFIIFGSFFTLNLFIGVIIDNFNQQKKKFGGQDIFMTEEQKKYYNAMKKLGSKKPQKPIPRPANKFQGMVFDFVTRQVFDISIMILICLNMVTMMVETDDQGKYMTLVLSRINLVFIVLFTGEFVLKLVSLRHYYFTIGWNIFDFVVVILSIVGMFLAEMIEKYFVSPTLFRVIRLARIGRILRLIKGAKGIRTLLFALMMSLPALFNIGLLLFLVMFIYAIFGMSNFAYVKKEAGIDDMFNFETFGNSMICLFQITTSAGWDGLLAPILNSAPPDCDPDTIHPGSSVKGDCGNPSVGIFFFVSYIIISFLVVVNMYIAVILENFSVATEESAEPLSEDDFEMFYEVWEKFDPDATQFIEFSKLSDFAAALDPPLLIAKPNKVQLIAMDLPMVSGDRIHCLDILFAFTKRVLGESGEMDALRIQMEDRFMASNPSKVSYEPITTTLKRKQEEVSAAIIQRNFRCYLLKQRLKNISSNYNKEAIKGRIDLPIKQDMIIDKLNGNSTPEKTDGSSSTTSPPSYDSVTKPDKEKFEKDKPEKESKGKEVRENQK

These compounds were tested against T1, hNaV1.3 channels (Homo sapiens, UniProt Q9NY46) (assay: Use-dependent inhibition of NaV1.3 currents, IonWorks Quattro planar array electrophysiology). Settings: use-dependent; concentration producing 15% inhibition, 10th versus 1st depolarizing pulse, 10 Hz.
T1 construct: expressed in transfected cells
Type: cell-based
CCc1cccc(CN(C)[C@H]2CCN(c3ncccc3C(=O)OC(C)C)C2)c1 [Example 14, 1-Methylethyl 2-{(3S)-3-[[(3-ethylphenyl)methyl](methyl)amino]-1-pyrrolidinyl}-3-pyridinecarboxylate] was tested, and the “pUD15 against NaV1.3” value was 5-5.99. For CC(C)OC(=O)c1cccnc1N1CCN(Cc2cccc(SCc3ccccc3)c2)CC1 [Example 37, 1-Methylethyl 2-[4-({3-[(phenylmethyl)thio]phenyl}methyl)-1-piperazinyl]-3-pyridine carboxylate hydrochloride], the “pUD15 against NaV1.3” value was 4-4.99. In the case of CCN(Cc1cccc(-c2ccccc2)c1)[C@@H]1CCN(c2ncccc2C(=O)OC(C)C)C1 [Example 43, 1-methylethyl 2-{(3R)-3-[(3-biphenylylmethyl)(ethyl)amino]-1-pyrrolidinyl}-3-pyridine carboxylate], the “pUD15 against NaV1.3” value is reported as 4-4.99. With CCN(Cc1ccc(-c2ccccc2Cl)o1)[C@@H]1CCN(c2ncccc2C(=O)OC(C)C)C1 [Example 45] the “pUD15 against NaV1.3” value was 4-4.99. With CCN(Cc1ccc(-c2cccs2)cc1)[C@@H]1CCN(c2ncccc2C(=O)OC(C)C)C1 [Example 49] the “pUD15 against NaV1.3” value was 4-4.99. CCN(Cc1ccc(-c2ccccc2Cl)cc1)[C@@H]1CCN(c2ncccc2C(=O)OC(C)C)C1 [Example 66] was tested, and the “pUD15 against NaV1.3” value was 4-4.99. In the case of CCN(Cc1cccc(-c2ccc(F)cc2)c1)[C@@H]1CCN(c2ncccc2C(=O)OC(C)C)C1 [Example 69], the “pUD15 against NaV1.3” value is reported as 4-4.99. In the case of CC(C)OC(=O)c1cccnc1N1CCN(Cc2cccc(OCc3ccccc3Cl)c2)CC1 [Example 82], the “pUD15 against NaV1.3” value is reported as 5-5.99. CC(C)OC(=O)c1cccnc1N1CCN(Cc2cccc(OCc3cccc(C(F)(F)F)c3)c2)CC1 [Example 83] was tested, and the “pUD15 against NaV1.3” value was 4-4.99. In the case of Cc1cccc(COc2cccc(CN3CCN(c4ncccc4C(=O)OC(C)C)CC3)c2)c1 [Example 85], the “pUD15 against NaV1.3” value is reported as 5-5.99. In the case of CC(C)OC(=O)c1c(Nc2ccccc2C(C)C)ccnc1N1CCN(Cc2ccccc2)CC1 [Example 104], the “pUD15 against NaV1.3” value is reported as 4-4.99. With CCc1ccccc1Nc1ccnc(N2CCN(Cc3ccccc3)CC2)c1C(=O)OC(C)C [Example 106] the “pUD15 against NaV1.3” value was 4-4.99. With CCN(Cc1cccs1)[C@@H]1CCN(c2nccc(-c3ccccc3)c2C(=O)OC(C)C)C1 [Example 150] the “pUD15 against NaV1.3” value was 4-4.99. CCN(Cc1ccccc1C)[C@@H]1CCN(c2nccc(-c3ccccc3)c2C(=O)OC(C)C)C1 [Example 160] was tested, and the “pUD15 against NaV1.3” value was 4-4.99. For CCN(Cc1ccc(OC)c(OCc2ccccc2)c1)[C@@H]1CCN(c2nccc(-c3ccccc3)c2C(=O)OC(C)C)C1 [Example 162], the “pUD15 against NaV1.3” value was 4-4.99. For CCN(Cc1ccccc1OC(C)C)[C@@H]1CCN(c2nccc(-c3ccccc3)c2C(=O)OC(C)C)C1 [Example 164], the “pUD15 against NaV1.3” value was 4-4.99. CCN(Cc1cccc(OC(C)C)c1)[C@@H]1CCN(c2nccc(-c3ccccc3)c2C(=O)OC(C)C)C1 [Example 166] was tested, and the “pUD15 against NaV1.3” value was 4-4.99. CCN(Cc1ccc(Oc2ccccc2)cc1)[C@H]1CCN(c2ncccc2C(=O)OC(C)C)C1 [Example 177] was tested, and the “pUD15 against NaV1.3” value was 5-5.99. CCN(Cc1cccc(Oc2ccc(OC)cc2)c1)[C@H]1CCN(c2ncccc2C(=O)OC(C)C)C1 [Example 186] was tested, and the “pUD15 against NaV1.3” value was 4-4.99. CC(C)OC(=O)c1cccnc1N1CCN(Cc2ccc(COc3c(F)cccc3F)cc2)CC1 [Example 189, 1-methylethyl 2-{4-[(4-{[(2,6-difluorophenyl)oxy]methyl}phenyl)methyl]-1-piperazinyl}-3-pyridinecarboxylate] was tested, and the “pUD15 against NaV1.3” value was 4-4.99. In the case of CC(C)OC(=O)c1cccnc1N1CCN(Cc2ccc(COc3ccc(F)c(F)c3)cc2)CC1 [Example 190, 1-methylethyl 2-{4-[(4-{[(3,4-difluorophenyl)oxy]methyl}phenyl)methyl]-1-piperazinyl}-3-pyridinecarboxylate], the “pUD15 against NaV1.3” value is reported as 5-5.99. In the case of CC(C)OC(=O)c1cccnc1N1CCN(Cc2ccc(COc3ccc(F)c(Cl)c3)cc2)CC1 [Example 191, 1-methylethyl 2-{4-[(4-{[(3-chloro-4-fluorophenyl)oxy]methyl}phenyl)methyl]-1-piperazinyl}-3-pyridinecarboxylate], the “pUD15 against NaV1.3” value is reported as 5-5.99. With COc1ccc(OCc2ccc(CN3CCN(c4ncccc4C(=O)OC(C)C)CC3)cc2)cc1 [Example 193, 1-methylethyl 2-(4-{[4-({[4-(methyloxy)phenyl]oxy}methyl)phenyl]methyl}-1-piperazinyl)-3-pyridinecarboxylate] the “pUD15 against NaV1.3” value was 5-5.99. In the case of CC(C)OC(=O)c1cccnc1N1CCN(Cc2ccc(COc3ccccc3Cl)cc2)CC1 [Example 196, 1-methylethyl 2-{4-[(4-{[(2-chlorophenyl)oxy]methyl}phenyl)methyl]-1-piperazinyl}-3-pyridinecarboxylate], the “pUD15 against NaV1.3” value is reported as 4-4.99. For Cc1ccc(OCc2ccc(CN3CCN(c4ncccc4C(=O)OC(C)C)CC3)cc2)cc1 [Example 202, 1-methylethyl 2-{4-[(4-{[(4-methylphenyl)oxy]methyl}phenyl)methyl]-1-piperazinyl}-3-pyridinecarboxylate], the “pUD15 against NaV1.3” value was 5-5.99. CCOc1ccc(OCc2cccc(CN3CCN(c4ncccc4C(=O)OC(C)C)CC3)c2)cc1 [Example 205, 1-methylethyl 2-(4-{[3-({[4-(ethyloxy)phenyl]oxy}methyl)phenyl]methyl}-1-piperazinyl)-3-pyridinecarboxylate] was tested, and the “pUD15 against NaV1.3” value was 5-5.99. For CC(C)OC(=O)c1cccnc1N1CCN(Cc2cccc(COc3ccccc3Cl)c2)CC1 [Example 213, 1-methylethyl 2-{4-[(3-{[(2-chlorophenyl)oxy]methyl}phenyl)methyl]-1-piperazinyl}-3-pyridinecarboxylate], the “pUD15 against NaV1.3” value was 4-4.99. With CC(C)OC(=O)c1cccnc1N1CCN(Cc2cccc(COc3ccccc3C(F)(F)F)c2)CC1 [Example 215, 1-methylethyl 2-(4-{[3-({[2-(trifluoromethyl)phenyl]oxy}methyl)phenyl]methyl}-1-piperazinyl)-3-pyridinecarboxylate] the “pUD15 against NaV1.3” value was 4-4.99. CC(C)OC(=O)c1cccnc1N1CCN(Cc2cccc(COc3cccc(C#N)c3)c2)CC1 [Example 216, 1-methylethyl 2-{4-[(3-{[(3-cyanophenyl)oxy]methyl}phenyl)methyl]-1-piperazinyl}-3-pyridinecarboxylate] was tested, and the “pUD15 against NaV1.3” value was 5-5.99. COc1ccnc(-n2cccc2CN2CCN(c3nccc(C)c3C(=O)OC(C)C)CC2)c1C#N [Example 256, 1-methylethyl 2-[4-({1-[3-cyano-4-(methyloxy)-2-pyridinyl]-1H-pyrrol-2-yl}methyl)-1-piperazinyl]-4-methyl-3-pyridinecarboxylate] was tested, and the “pUD15 against NaV1.3” value was 5-5.99. CC(C)OC(=O)c1cccnc1N(C)[C@@H]1CCN(Cc2cccc(Oc3cc(Cl)cc(Cl)c3)c2)C1 [Example 263, 1-methylethyl 2-[[(3R)-1-({3-[(3,5-dichlorophenyl)oxy]phenyl}methyl)-3-pyrrolidinyl](methyl)amino]-3-pyridinecarboxylate] was tested, and the “pUD15 against NaV1.3” value was 4-4.99. For Cc1ccccc1COc1ccc(CN2CC[C@@H](N(C)c3ncccc3C(=O)OC(C)C)C2)cc1 [Example 267, 1-methylethyl 2-(methyl{(3R)-1-[(4-{[(2-methylphenyl)methyl]oxy}phenyl)methyl]-3-pyrrolidinyl}amino)-3-pyridinecarboxylate], the “pUD15 against NaV1.3” value was 5-5.99. With CC(C)OC(=O)c1cccnc1N(C)[C@@H]1CCN(Cc2ccc(OCC(N)=O)cc2)C1 [Example 268, 1-methylethyl 2-[[(3R)-1-({4-[(2-amino-2-oxoethyl)oxy]phenyl}methyl)-3-pyrrolidinyl](methyl)amino]-3-pyridinecarboxylate] the “pUD15 against NaV1.3” value was 4-4.99. For COC(=O)c1ccc(COc2ccc(CN3CC[C@@H](N(C)c4ncccc4C(=O)OC(C)C)C3)cc2)cc1 [Example 269, 1-methylethyl 2-{methyl[(3R)-1-({4-[({4-[(methyloxy)carbonyl]phenyl}methyl)oxy]phenyl}methyl)-3-pyrrolidinyl]amino]-3-pyridinecarboxylate], the “pUD15 against NaV1.3” value was 5-5.99. In the case of CCOc1ccccc1CN(CC)[C@@H]1CCN(c2nccc(C)c2C(=O)OC(C)C)C1 [Example 293, 1-methylethyl 2-[(3R)-3-(ethyl{[2-(ethyloxy)phenyl]methyl}amino)-1-pyrrolidinyl]-4-methyl-3-pyridinecarboxylate], the “pUD15 against NaV1.3” value is reported as 4-4.99. With CCN(Cc1ccccc1Oc1ccccc1)[C@@H]1CCN(c2nccc(C)c2C(=O)OC(C)C)C1 [Example 294, 1-methylethyl 2-[(3R)-3-(ethyl{[2-(phenyloxy)phenyl]methyl}amino)-1-pyrrolidinyl]-4-methyl-3-pyridinecarboxylate] the “pUD15 against NaV1.3” value was 5-5.99. CCN(Cc1cccc(OC)c1)[C@@H]1CCN(c2nccc(C)c2C(=O)OC(C)C)C1 [Example 297, 1-methylethyl 2-[(3R)-3-(ethyl{[3-(methyloxy)phenyl]methyl}amino)-1-pyrrolidinyl]-4-methyl-3-pyridinecarboxylate] was tested, and the “pUD15 against NaV1.3” value was 5-5.99. CCN(Cc1ccc(OCc2ccccc2)cc1)[C@@H]1CCN(c2nccc(C)c2C(=O)OC(C)C)C1 [Example 300, 1-methylethyl 2-{(3R)-3-[ethyl({4-[(phenylmethyl)oxy]phenyl}methyl)amino]-1-pyrrolidinyl}-4-methyl-3-pyridinecarboxylate] was tested, and the “pUD15 against NaV1.3” value was 4-4.99. For Cc1cc(OCc2ccccc2)ccc1CN1CCN(c2ncccc2C(=O)OC(C)C)CC1 [Example 315, 1-methylethyl 2-[4-({2-methyl-4-[(phenylmethyl)oxy]phenyl}methyl)-1-piperazinyl]-3-pyridinecarboxylate], the “pUD15 against NaV1.3” value was 4-4.99. With CCOc1cc(CN2CCN(c3ncccc3C(=O)OC(C)C)CC2)ccc1OCc1ccccc1 [Example 321, 1-methylethyl 2-[4-({3-(ethyloxy)-4-[(phenylmethyl)oxy]phenyl}methyl)-1-piperazinyl]-3-pyridinecarboxylate] the “pUD15 against NaV1.3” value was 4-4.99. For CC(C)OC(=O)c1cccnc1N1CCN(Cc2ccc(OCc3c(F)cccc3Cl)cc2)CC1 [Example 336, 1-methylethyl 2-{4-[(4-{[(2-chloro-6-fluorophenyl)methyl]oxy}phenyl)methyl]-1-piperazinyl}-3-pyridinecarboxylate], the “pUD15 against NaV1.3” value was 5-5.99.
